From PubChem BioAssay AID2549 (National Center for Advancing Translational Sciences (NCATS), 2010)
Screen size: about 240,000 compounds; about 1,300 (0.54%) were called active. Inconclusive means that the source gave no clear call. Such entries were picked first, then a sample of the others. Calls come from the whole dose curve; as a rule, active = well fitted inhibition curve with a large enough effect; inconclusive = small, poorly fitted or top-dose-only effect; inactive = flat fitted curve, though single readings scatter. Where the call is inconclusive, the potency comes from a doubtful curve fit. More than one record can exist for a structure, and the calls need not agree.

Sequences of proteins named here, by UniProt entry; tags and fusion partners are left off. A change or cut given only in a name is not applied to a line headed by its entry.
UniProt P46063: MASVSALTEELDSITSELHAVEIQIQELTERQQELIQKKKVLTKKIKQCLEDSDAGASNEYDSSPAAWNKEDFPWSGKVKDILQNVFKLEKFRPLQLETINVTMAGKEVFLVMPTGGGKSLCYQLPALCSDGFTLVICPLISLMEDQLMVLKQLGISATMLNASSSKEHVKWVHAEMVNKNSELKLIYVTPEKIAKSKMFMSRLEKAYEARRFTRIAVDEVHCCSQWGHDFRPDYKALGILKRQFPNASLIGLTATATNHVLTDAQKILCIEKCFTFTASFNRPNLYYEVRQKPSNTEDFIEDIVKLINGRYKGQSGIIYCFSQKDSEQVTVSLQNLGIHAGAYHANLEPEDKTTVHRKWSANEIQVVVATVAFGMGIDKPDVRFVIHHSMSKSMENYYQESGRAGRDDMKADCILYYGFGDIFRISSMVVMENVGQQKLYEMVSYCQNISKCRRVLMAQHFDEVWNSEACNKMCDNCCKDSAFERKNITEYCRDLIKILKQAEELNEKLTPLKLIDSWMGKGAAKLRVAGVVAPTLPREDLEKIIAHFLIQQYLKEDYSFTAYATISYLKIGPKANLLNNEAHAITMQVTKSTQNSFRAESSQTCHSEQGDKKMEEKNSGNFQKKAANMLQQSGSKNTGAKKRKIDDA

biological target: ATP-dependent DNA helicase Q1 (Homo sapiens) (UniProt P46063); experiment: qHTS Assay for Inhibitors of RecQ-Like Dna Helicase 1 (RECQ1); conditions: RECQ1 DNA unwinding, red fluorescence kinetic read; series mostly up to 57.3 µM; note: nearly all actives have a fitted effect of over 30% in size
In short: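 50 nM RECQ1T1 preincubated 15 min with compound in Tris pH 8.0 buffer with MgCl2, DTT, Tween-20 and 2.5 ug/ml poly(dI-dC); started with 200 nM TAMRA/BHQ-2 forked duplex and 2 mM ATP. Unwinding read as fluorescence (525/598 nm), two reads 2 h apart.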
Potency is the fitted concentration of half-maximal effect.

| Structure (SMILES) | Potency |
| --- | --- |
| Cc1noc(C)c1-c1ccc2ncnc(NCCN3CCOCC3)c2c1 | inactive |
| Cc1cc(=O)[nH]c(N/N=C/c2c(O)n(-c3ccccc3)c(=O)c3ccccc23)n1 | inconclusive: 31.6 µM [inhibitor, single point] |
| CCN1CCN(c2nc(Nc3ccc(NC(C)=O)cc3)nc(Nc3ccc(NC(C)=O)cc3)n2)CC1 | active: 31.6 µM |
| C[c-]1[c-](C)[c-](C)[c-](C)[c-]1C.[Fe].c1cc2nccc(N3CCCC3)[c-]2c1 (stereo not drawn) | active: 6.31 µM |
| CC(=O)c1cc2c(=O)c3cc(C)ccc3oc2nc1C | inactive |
| O=S(=O)(NCc1ccc(Cl)cc1)NCc1ccccc1F | inconclusive: 0.0282 µM [inhibitor, full curve] |
| CN(Cc1ccccc1)C(=O)c1[nH]cnc1C(=O)N[C@@H](Cc1ccccc1)C(=O)OCc1ccccc1 | inconclusive: 39.8 µM [inhibitor, single point] |
| CC1CC1C(=O)Nc1nc(-c2cccs2)c(-c2cccs2)s1 (stereo not drawn) | active: 31.6 µM |
| COc1cccc(-n2nnnc2SCC(=O)NCc2ccc3c(c2)OCO3)c1 | inconclusive: 39.8 µM [inhibitor, single point] |
| CC(=O)N(\C=C/C=C/C=C1\Sc2ccccc2C1=O)c1ccccc1 | inconclusive: 35.5 µM [inhibitor, single point] |
| CCN(CC)C(=O)CSC(Nc1ccc(F)cc1)=C(C#N)C#N | inconclusive: 35.5 µM [inhibitor, single point] |
| O=C(OCCN1C(=O)c2cccc3c(N4CCOCC4)ccc(c23)C1=O)c1cc(Cl)cc(Cl)c1 | inconclusive: 35.5 µM [inhibitor, single point] |
| O=C(O)Cc1c[nH]c2cccc(O)c12 | active: 31.6 µM |
| O=C(NC1(O)C(=O)c2ccccc2C1=O)c1ccccc1 | inactive |
| S=C(c1cn(Cc2ccc(Br)cc2)c2ccccc12)N1CCOCC1 | inconclusive: 1.12 µM [inhibitor, full curve, poor fit] |
| Cn1c(C2CCCCC2)nc2c1c(=O)[nH]c(=O)n2Cc1ccccc1 | inactive |
| CC1=Nc2ccccc2/C1=C\c1nc(-c2ccc(C(F)(F)F)cc2)oc1O | inactive |
| COc1cc(-c2cc(=O)c3c(O)c(OC)c(OC)cc3o2)cc(OC)c1O | inconclusive: 35.5 µM [inhibitor, single point] |
| O=C1c2c(O)cc(O)cc2O[C@H](c2ccc(O)c(O)c2)C1O (stereo partly drawn) | active: 14.1 µM |
| COc1ccc2c(Cl)c(C(=O)N/N=C3\CCCC(=O)C3)sc2c1 | inconclusive: 15.8 µM [inhibitor, partial curve] |
| COC(=O)c1ccccc1NC(=O)CSc1nc(N)cc(N)n1 | inactive |
| COc1cc(N)ccc1Cc1ccc(N)cc1OC | inactive |
| CCOC(=O)c1c(NC(=O)CN2C(=O)NC(C)(c3ccccc3)C2=O)sc(C)c1C (stereo not drawn) | inconclusive: 35.5 µM [inhibitor, single point] |
| CN1C(=O)/C(=C/c2ccc(O)c([N+](=O)[O-])c2)NC1=S | inactive |
| O=C(CN1C(=O)COc2ccccc21)NCCCN1CCN(Cc2ccccc2)CC1 | inconclusive: 39.8 µM [inhibitor, single point] |

| Structure (SMILES) | Potency |
| --- | --- |
| COc1ccc(CC(=O)NCc2nnc(SCC(=O)Nc3cccc(F)c3)n2C)cc1 | inconclusive: 6.31 µM [inhibitor, single point] |
| CN(C)C(=O)CSc1ncnc2scc(-c3ccccc3)c12 | inconclusive: 28.2 µM [inhibitor, single point] |
| CCN(CC)c1ccc(C=C2C(=O)OC3(CCCCC3)OC2=O)cc1 | active: 31.6 µM |
| CCN(CC)c1cccc(OC2=NS(=O)(=O)c3ccccc32)c1 | inconclusive: 35.5 µM [inhibitor, single point] |
| O=C(c1ccco1)N(CCC(c1ccccc1)c1ccco1)Cc1ccccc1 (stereo not drawn) | active: 11.2 µM |
| COc1ccc(/C=C2\SC(=O)N(CC(=O)NNC(=O)c3ccccc3O)C2=O)cc1 | active: 2.82 µM |
| Cc1ccc(S(=O)(=O)N(Cc2ccc(F)cc2)Cc2ccco2)cc1 | inconclusive: 39.8 µM [inhibitor, single point] |
| O=C(Nc1ccccc1)c1ccc(NCCc2ccccc2)c([N+](=O)[O-])c1 | inconclusive: 44.7 µM [inhibitor, single point] |
| O=c1[nH]c(=O)c2nc3ccccc3nc2[nH]1 | inactive |
| Cc1[nH]n2cnnc2c(=O)c1Br | inactive |
| c1cc2c3c(cccc3c1)NC1(CCCCCC1)N2 | inactive |
| O=C(O)Cc1cccc(OCCCN(Cc2cccc(C(F)(F)F)c2Cl)CC(c2ccccc2)c2ccccc2)c1 | inconclusive: 35.5 µM [inhibitor, single point] |
| N#C/C(=C\c1ccc(O)c(O)c1)C(=O)NCCc1ccccc1 | inconclusive: 39.8 µM [inhibitor, single point] |
| Oc1ccc(C2=Nn3c(nnc3-c3ccco3)SC2)cc1O | inactive |
| CN1CCN(CC(C)(C)NS(=O)(=O)c2ccc(Cl)cc2)CC1 | inconclusive: 39.8 µM [inhibitor, single point] |
| O=C(COC(=O)c1ccc([N+](=O)[O-])o1)NC1CCS(=O)(=O)C1 (stereo not drawn) | inactive |
| CC1CC(=O)c2c(cc3c(-c4c(O)cc(O)c5c(O)c6c(cc45)OC(C)CC6=O)c(O)cc(O)c3c2O)O1 (stereo not drawn) | active: 17.8 µM |
| Nc1nc(-c2nonc2N)no1 | inconclusive: 0.631 µM [inhibitor, full curve] |
| Nc1nn2cc(-c3ccc(Br)cc3)nc2c2ccccc12 | inconclusive: 35.5 µM [inhibitor, single point] |
| O=C(CN(c1ccccn1)S(=O)(=O)c1ccc(F)cc1)Nc1ccccc1 | inconclusive: 0.0447 µM [inhibitor, full curve] |
| CC1=CC(=C(C#N)C#N)C=C(C)N1CCN1CCN(C(=O)Nc2ccc(Cl)c(Cl)c2)CC1 | inconclusive: 3.16 µM [inhibitor, partial curve] |
| COc1ccccc1/C=C/C=c1\sc2nc(=O)c(Cc3ccccc3)nn2c1=O | inconclusive: 35.5 µM [inhibitor, single point] |
| CCNc1oc(COc2ccccc2F)nc1C#N | inconclusive: 0.199 µM [inhibitor, full curve, poor fit] |
| O=C(COC(=O)C1CCCCC1C(=O)N1CCc2ccccc21)NCc1ccco1 (stereo not drawn) | inconclusive: 3.16 µM [inhibitor, partial curve, poor fit] |
| O=C(CSc1nnc(SCc2ccccc2)s1)N/N=C/C=C\c1ccco1 | active: 25.1 µM |

| Structure (SMILES) | Potency |
| --- | --- |
| CC[C@H](C)[C@H](N)C(=O)N[C@H](C(=O)N[C@@H](CO)C(=O)N[C@@H](C)C(=O)N[C@H](C(=O)N[C@H](C(=O)NCC(=O)N[C@H](C(=O)N[C@@H](CC(C)C)C(=O)O)[C@@H](C)CC)C(C)C)C(C)C)[C@@H](C)CC | inactive |
| S=c1[nH]nc(-c2cc(-c3ccccc3)n[nH]2)n1/N=C/c1cccc(Cl)c1 | inconclusive: 39.8 µM [inhibitor, single point] |
| CC(C)(C)c1ccc(/C=N/OCC(=O)NCc2ccc(F)cc2)cc1 | inconclusive: 39.8 µM [inhibitor, single point] |
| COc1ccc2ccccc2c1/C=N/N1C(=O)CSC1=S | active: 28.2 µM |
| COc1ccc(-n2c(=O)c(-c3ccccc3)nc3cnc(N4CCOCC4)nc32)cc1 | inactive |
| Cc1ccc(-c2ccc(/C=C3/NC(=O)NC3=O)o2)cc1[N+](=O)[O-] | active: 28.2 µM |
| COc1cc(C(=O)OCC(=O)NC2CCCC2)cc(NC(=O)c2ccco2)c1OC | inconclusive: 8.91 µM [inhibitor, partial curve, poor fit] |
| COC(=O)c1sccc1NC(=S)Nc1ccc(F)cc1 | inconclusive: 7.94 µM [inhibitor, full curve] |
| O=C(NC1=NCCS1)c1ccccc1OCc1ccccc1Cl | inactive |
| O=C(/C=C/c1ccc(O)c(O)c1)c1ccc(O)cc1O | inactive |
| O=C(CSc1nc2ccccc2c(=O)[nH]1)c1ccc(O)c(O)c1 | active: 8.91 µM |
| C=C(C)C(=O)Nc1cccc(C2=NOC3(C2)C[C@@H](C(N)=O)N(C(=O)c2ccc(OC)cc2)C3)c1 (stereo partly drawn) | active: 7.94 µM |
| O=c1c([N+](=O)[O-])cccn1Cc1cccc(Cl)c1 | inconclusive: 4.47 µM [inhibitor, partial curve] |
| O=C(CSc1ccsc1[N+](=O)[O-])Nc1cccc(F)c1 | inconclusive: 39.8 µM [inhibitor, single point] |
| O=C(CSc1nc2ccccc2[nH]1)NCc1ccco1 | inactive |
| CCOC(=O)c1[nH]c2ccc(F)cc2c1NC(=O)CN1CCN(C/C=C/c2ccccc2)CC1 | inconclusive: 0.282 µM [inhibitor, full curve, poor fit] |
| Cc1ccc(Nc2nc3c([nH]2)c(=O)n(C)c(=O)n3C)cc1 | inactive |
| CCN(CC)C(=O)CSc1nc2ccc(NC(=O)CSc3nnc(N)s3)cc2s1 | inconclusive: 14.1 µM [inhibitor, single point] |
| Nc1nc(Nc2cccc(Cl)c2)nc(NCc2ccco2)c1[N+](=O)[O-] | inconclusive: 35.5 µM [inhibitor, single point] |
| Cc1cc(Cl)ccc1NC(=S)NCCCN1CCCC1=O | inconclusive: 0.891 µM [inhibitor, full curve] |
| Cn1c(SCC(=O)N/N=C/c2cc([N+](=O)[O-])ccc2O)nnc1-c1ccccc1 | inactive |
| CCOC(=O)c1c(OCC)[nH]c2c1cc(O)c1ccccc12 | inactive |
| COC(=O)c1c(NC(=O)Cc2ccccc2)sc2c1C(C(=O)OC)CC2 (stereo not drawn) | inactive |

Quoted from the listing.
In Potency, `COc1ccc2ccccc2c1/C=N/N1C(=O)CSC1=S` shows active: 28.2 µM
In Potency, `CC(C)(C)c1ccc(/C=N/OCC(=O)NCc2ccc(F)cc2)cc1` shows inconclusive: 39.8 µM [inhibitor, single point]
In Potency, `Cc1ccc(Nc2nc3c([nH]2)c(=O)n(C)c(=O)n3C)cc1` shows inactive
In Potency, `CCOC(=O)c1[nH]c2ccc(F)cc2c1NC(=O)CN1CCN(C/C=C/c2ccccc2)CC1` shows inconclusive: 0.282 µM [inhibitor, full curve, poor fit]
In Potency, `CCOC(=O)c1c(OCC)[nH]c2c1cc(O)c1ccccc12` shows inactive
In Potency, `Nc1nc(Nc2cccc(Cl)c2)nc(NCc2ccco2)c1[N+](=O)[O-]` shows inconclusive: 35.5 µM [inhibitor, single point]
